Test results as given in PubChem BioAssay (NCATS).
Several values for one entry are separate records, joined by “and”; a condition that tells them apart may be missing. Identical values can stand only once. This list was built around the results that the source calls inconclusive (neither active nor inactive); the mix of calls is not that of the screen. Potencies beside an inconclusive call are fits to weak or partial responses and may not hold up. Activity calls are given as the source filed them. Calls come from the whole dose curve; as a rule, active = well fitted cell-killing curve with a large enough effect; inconclusive = small, poorly fitted or top-dose-only effect; inactive = no such curve, though single readings can be large or run the other way.

Test: qHTS of pediatric cancer cell lines to identify multiple opportunities for drug repurposing: Confirmatory screen for SK-N-MC cells (AID 1347111);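 note: cells exposed to compound for 48 h before the readout; nearly all actives have a fitted effect of over 70% in size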
Conditions: SK-N-MC cell viability; series mostly up to 45.9 µM; activity change, negative = cytotoxic: at the top concentration
Source text: Drug repurposing or repositioning has been offered as a strategy for drug development in oncology programs. This approach has special potential for childhood cancers and other rare or orphan diseases, where the expected return on new drug development has been a disincentive to pharmaceuticals.
In this project we exploit the poly-pharmacology of drugs to discover new indications via phenotypic screening of a panel of 19 well-characterized cell lines derived from solid tumors seen in children and adolescents. The goal is to identify approved drugs with previously unrecognized anticancer properties that has the potential to reveal new mechanisms and biological processes involved in carcinogenesis or drug resistance. We employed a titration-based paradigm (quantitative high-throughput screening or qHTS), where all compounds were tested at multiple concentrations for their effect on cell viability. Concentration-response curves (CRCs) were derived directly from the primary screen, and both potency and efficacy values were used to identify compounds with robust bioactivity profiles. We screened the NIH Chemical Genomics Center (NCGC) Pharmaceutical Collection (NPC) and Mechanism Interrogation Plate (MIPE) small molecule collections of approved and investigational compounds against these cell lines; and measured metabolically active cells after 48 hours of compound treatment as a proxy for cell viability.
Assay Submitter: Nathalia J. Martinez, National Center for Advancing Translational Sciences, National Institutes of Health, Rockville, MD, USA; email: natalia.martinez@nih.gov
[1] Shen, M et al. Quantitative high-throughput phenotypic screening of pediatric cancer cell lines identifies multiple opportunities for drug repurposing. Oncotarget 2017 Dec 19;9(4):4758-4772. PMID 29435139.
The cells were obtained from University of North Carolina (UNC), Pediatric Preclinical Testing Program (PPT), and Coriell Institute (CI).
qHTS cell viability assay:
Cells were assayed in growth media at a density of 500-1,000 cells/well. Five microliters of cells were dispensed into 1,536-well, white, solid-bottom, TC-treated plates (Greiner Bio One) using a multidrop dispenser and incubated at 37 degrees C, 5% CO2, under a humidified atmosphere for 5 hours. Twenty-three nanoliters of compounds and controls (neutral control DMSO or positive control bortezomib at final concentration of 2.3 µM) were subsequently transferred by Kalypsys pintool. For primary screens, the MIPE collection was tested at 11-point dilutions (final concentrations range from 0.78 nM to 46 µM) and the NPC collection at 8-point dilutions (final concentrations range from 0.59nM to 46 µM). Compounds tested in follow-up screens were assayed at 11-point dilutions. Cells were incubated for 48 hours, followed by addition of 3 uL of CellTiter-Glo (Promega). After a 15 min incubation at room temperature, samples were analyzed for luminescence intensity using a ViewLux High-throughput CCD imager equipped with clear filters.
Potency is the fitted concentration of half-maximal effect.

Row | Compound | Potency | activity change, negative = cytotoxic
1 | CN(C)CCCN1c2ccccc2CCc2ccc(Cl)cc21 | inconclusive: 26.1 µM [cytotoxic, partial curve, poor fit] | 
2 | CC(C)C[C@H](NC(=O)[C@@H](NC(=O)c1cccc(-c2ccccc2)n1)[C@@H](C)O)B(O)O | active: 0.0147 µM | 
3 | CC1(C)OC2CC3C4CC(F)C5=CC(=O)C=CC5(C)C4C(O)CC3(C)[C@]2(C(=O)CO)O1 (stereo not given in full) |  | inactive: 2.99%
4 | COc1cc2c(cc1OC)[C@@H]1Cc3ccc(OC)c(OC)c3CN1CC2 | inconclusive: 0.657 µM [cytotoxic, full curve, poor fit] | 
5 | NC(N)=Nc1nc(CSCCC(N)=NS(N)(=O)=O)cs1 |  | inactive: -14.7%
6 | CN1CCN(c2ncc(-c3cc(Cl)cc(Cl)c3Cl)c(N)n2)CC1 | inconclusive: 36.9 µM [cytotoxic, single point] | 
7 | CC1(COc2ccc3c(c2)ncn3-c2ccc3cccc(N4CCC(N)CC4)c3n2)COC1 | inconclusive: 11.7 µM [cytotoxic, single point] | 
8 | Cc1c(C(=O)Nc2ccc(N3C[C@@H](C)O[C@@H](C)C3)nc2)cccc1-c1ccc(OC(F)(F)F)cc1 | inconclusive: 36.9 µM [cytotoxic, single point] | 
9 | CCC(C(=O)O)C1CCC(C)C(C(C)C(O)C(C)C(=O)C(CC)C2OC3(C=CC(O)[C@@]4(CC[C@](C)(C5CC[C@@](O)(CC)C(C)O5)O4)O3)C(C)CC2C)O1 (stereo not given in full) |  | inactive: -99.3%
10 | CN(CC(=O)N(Cc1ccc(C2CCCCC2)cc1)c1ccc(C(=O)O)c(O)c1)S(=O)(=O)c1c(F)c(F)c(F)c(F)c1F | inconclusive: 32.9 µM [cytotoxic, single point] | 
11 | COc1nc(N)nc2c1ncn2[C@@H]1O[C@H](CO)[C@@H](O)[C@@H]1O | active: 2.93 µM | 
12 | COC(=O)Nc1nc2ccc(C(=O)c3ccccc3)cc2[nH]1 | inconclusive: 0.414 µM [cytotoxic, full curve, poor fit] | 
13 | COc1cc(CNC(=O)CCCCC=CC(C)C)ccc1O | inconclusive: 36.9 µM [cytotoxic, single point] | 
14 | NC(N)=NC(=O)c1nc(Cl)c(N)nc1N | inconclusive: 23.3 µM [cytotoxic, single point] | 
15 | CCN(CC)Cc1ccc2cc(COC(=O)Nc3ccc(C(=O)NO)cc3)ccc2c1 |  | inactive: -5.57%
16 | COc1ccc(-c2ccc3c(N4CCOC[C@H]4C)nc(N4CCOC[C@H]4C)nc3n2)cc1CO | active: 0.827 µM | 
17 | Nc1nc(F)nc2c1ncn2[C@@H]1O[C@H](CO)[C@@H](O)[C@@H]1O | active: 0.465 µM | 
18 | COc1cc2ncnc(Nc3cc(Br)c(O)c(Br)c3)c2cc1OC | inconclusive: 36.9 µM [cytotoxic, single point] | 
19 | O=C(NOC[C@H](O)CO)c1ccc(F)c(F)c1Nc1ccc(I)cc1F |  | inactive: -5.19%
20 | CCN(CC)CCOc1ccc(Nc2ncc3cc(-c4c(Cl)cccc4Cl)c(=O)n(C)c3n2)cc1 | active: 0.293 µM | 

Row | Compound | Potency | activity change, negative = cytotoxic
21 | CC=CC1=C(C(=O)O)N2C(=O)[C@H](NC(=O)[C@H](N)c3ccc(O)cc3)[C@@H]2SC1 | inconclusive: 1.04 µM [cytotoxic, full curve, poor fit] | 
22 | CCCCn1c(=O)n(Cc2ccccc2F)c(=O)c2[nH]c(Cc3ccc(NC(C)=O)cc3)nc21 | inconclusive: 20.8 µM [cytotoxic, single point] | 
23 | Nc1ccccc1NC(=O)c1ccc(CNc2nccc(-c3cccnc3)n2)cc1 |  | inactive: -102%
24 | C[C@]12CCC(=O)C=C1CC[C@@H]1[C@H]2[C@@H](O)C[C@@]2(C)[C@H]1CC[C@]2(O)C(=O)CO | inconclusive: 11.7 µM [cytotoxic, single point] | 
25 | COc1cccc(Nc2c(C(N)=O)cnc3c(C)cc(S(=O)(=O)c4cccc(C(=O)N(C)C)c4)cc23)c1 | inconclusive: 0.456 µM [cytotoxic, full curve, poor fit] | 
26 | COCC(=O)NCC=Cc1ccc2ncnc(Nc3ccc(Oc4ccc(C)nc4)c(C)c3)c2c1 | inconclusive: 67.6 µM [cytotoxic, single point] | 
27 | N#CC(=C1Nc2ccccc2S1)c1ccnc(OCc2ccc(CN3CCOCC3)cc2)n1 | inconclusive: 36.9 µM [cytotoxic, single point] | 
28 | C[C@H](c1ccc(F)cc1CCCC(=O)O)N(c1cc(F)ccc1F)S(=O)(=O)c1ccc(Cl)cc1 | inconclusive: 32.9 µM [cytotoxic, single point] | 
29 | CNC(=O)c1cc(Oc2ccc(NC(=O)Nc3ccc(Cl)c(C(F)(F)F)c3)cc2)ccn1 | inconclusive: 32.9 µM [cytotoxic, single point] | 
30 | CC(C)CC(=O)Nc1n[nH]c2c1CN(C(=O)C1CCN(C)CC1)C2(C)C | inconclusive: 0.0329 µM [cytotoxic, full curve, poor fit] | 
31 | Cc1cnc(-c2cc(N3CCN(C(=O)CCS(C)(=O)=O)CC3)ncc2Cl)c(C)c1 |  | inactive: -17%
32 | C=CCn1c(=O)c2cnc(Nc3ccc(N4CCN(C)CC4)cc3)nc2n1-c1cccc(C(C)(C)O)n1 | inconclusive: 0.737 µM [cytotoxic, full curve, poor fit] | 
33 | FC(F)(F)c1ccc(C=Cc2nc(COc3ccc(CCCCn4ccnn4)cc3)co2)cc1 | active: 1.17 µM | 
34 | Cn1cnc(=N)c2[nH]cnc21 |  | inactive: -15.1%
35 | CCOC(=O)c1ccc(C#Cc2ccc3c(c2)C(C)(C)CCS3)nc1 | inconclusive: 36.9 µM [cytotoxic, single point] | 
36 | CCCS(=O)(=O)Nc1ccc(F)c(C(=O)c2c[nH]c3ncc(-c4ccc(Cl)cc4)cc23)c1F | active: 23.3 µM | 
37 | CNC(=O)[C@H](CC1=CN=C2C=CCC=C12)NC(=O)[C@@H](CC(=O)NO)CC(C)C | inconclusive: 0.827 µM [cytotoxic, full curve, poor fit] | 
38 | COC1CCC(C(=O)c2ccc3nc4c(cc3c2)CCCO4)CC1 (stereo not given) |  | inactive: 13%
39 | Nc1nc(=S)c2[nH]cnc2[nH]1 | active: 11.7 µM and active: 7.37 µM | 
40 | OCCn1cc(-c2ccc3c(c2)CCC3=NO)c(-c2ccncc2)n1 | inconclusive: 1.17 µM [rising, full curve, poor fit] | 
